US10159726B2, “Peptides, combination of peptides and scaffolds for use in immunotherapeutic treatment of various cancers” (Immatics Biotechnologies GmbH, priority 2015, dated 2018)

Tested on: HLA-A*02 molecules of primary tumors
Assay: Identification and relative LC-MS quantitation of HLA-A*02 tumor-associated peptides presented on tissue samples (XPRESIDENT presentation profiles)
Design: species or system human
[1] = Table 8A: selected HLA-A*02-binding tumor-associated peptides, cancer entities on which the peptide was found presented
[2] = Table 8B: selected HLA-A*02 peptides, presentation on additional cancer entities

Substance	Peptide Presentation on cancer entities [1]	Peptide Presentation on cancer entities [2]
1 (PLWGKVFYL; listed as Homo sapiens) [compound 1]	UBC, OSCAR, HCC, NSCLC, clPC	GBC_CCC
2 (ALYGKLLKL; listed as Homo sapiens) [compound 2]	RCC, OSCAR, GB, BRCA, CLL, UBC, HCC, SCLC, NSCLC, CRC, OC, GC, NHL	clPC, UTC, PCA, MEL, AML
3 (TLLGKQVTL; listed as Homo sapiens) [compound 3]		CLL, NSCLC, NHL, AML
4 (ELAEIVFKV; listed as Homo sapiens) [compound 4]	CRC, CLL, NSCLC, GB	
5 (SLFGQEVYC; listed as Homo sapiens) [compound 5]	HCC, GB, CRC	GBC_CCC, PCA
6 (FLDPAQRDL; listed as Homo sapiens) [compound 6]	UBC, NSCLC, GB, AML, clPC	MEL
7 (AAAAKVPEV; listed as Homo sapiens) [compound 7]	NSCLC, GB, CRC	MEL, HNSCC, NHL
8 (KLGPFLLNA; listed as Homo sapiens) [compound 8]	GC, GB, clPC, NSCLC	UTC, HCC
9 (FLGDYVENL; listed as Homo sapiens) [compound 9]	CLL, CRC, UBC	UTC, AML, OC, clPC
10 (KTLDVFNIIL; listed as Homo sapiens) [compound 10]	CLL, GC, GBC_CCC, OSCAR	
11 (GVLKVFLENV; listed as Homo sapiens) [compound 11]	HCC, NSCLC, GC, OC, OSCAR	
12 (GLIYEETRGV; listed as Homo sapiens) [compound 12]	GC, OSCAR, NSCLC, NHL	AML, UTC, HNSCC
13 (VLRDNIQGI; listed as Homo sapiens) [compound 13]	NSCLC, GBC_CCC, OC, GC, BRCA, OSCAR, CRC, GB, UEC, CLL, RCC, UBC, HCC, MEL, SCLC, NHL	AML, HNSCC
15 (ALGDYVHAC; listed as Homo sapiens) [compound 15]	HCC, GC	
16 (HLYNNEEQV; listed as Homo sapiens) [compound 16]	GBC_CCC, NSCLC, GB, clPC, CRC	
19 (TLLPTVLTL; listed as Homo sapiens) [compound 19]	RCC, UBC, SCLC	GBC_CCC, BRCA, UTC
20 (ALDGHLYAI; listed as Homo sapiens) [compound 20]	RCC, UBC, GC	
21 (SLYHRVLLY; listed as Homo sapiens) [compound 21]	RCC, OSCAR, NSCLC	
22 (MLSDLTLQL; listed as Homo sapiens) [compound 22]	CRC, PCA, RCC, NSCLC, BRCA, GC, SCLC, PC, OSCAR	MEL
24 (FLWNGEDSAL; listed as Homo sapiens) [compound 24]	PC, CRC	NSCLC, GC, UTC
26 (KVDGVVIQL; listed as Homo sapiens) [compound 26]	OSCAR, GC	

Substance	Peptide Presentation on cancer entities [1]	Peptide Presentation on cancer entities [2]
27 (KVFGDLDQV; listed as Homo sapiens) [compound 27]	OSCAR, GC	
28 (TLYSMDLMKV; listed as Homo sapiens) [compound 28]		HNSCC, RCC
29 (TLCNKTFTA; listed as Homo sapiens) [compound 29]	PCA, GB	
33 (LLLPLLPPLSPSLG; listed as Homo sapiens) [compound 33]		MEL, NSCLC, GBC_CCC, GC, clPC, SCLC, GB, PC, MCC, CRC, HCC
34 (LLPKKTESHHKT; listed as Homo sapiens) [compound 34]	CRC, HCC, NSCLC, GB	UTC
35 (YVLPKLYVKL; listed as Homo sapiens) [compound 35]	CLL, CRC, NSCLC, GBC_CCC, UBC, OSCAR	HNSCC, NHL, AML
36 (KLYGIEIEV; listed as Homo sapiens) [compound 36]	NSCLC, GB, RCC	UTC
37 (ALINDILGELVKL; listed as Homo sapiens) [compound 37]	clPC, CRC, RCC, HCC	MEL, UTC
39 (ALMAVVSGL; listed as Homo sapiens) [compound 39]	OSCAR, GBC_CCC, CLL, BRCA, HCC, UBC, NSCLC, OC, GC, MEL	HNSCC, NHL, UTC, AML
41 (FVLPLVVTL; listed as Homo sapiens) [compound 41]	OC, OSCAR, CLL, PCA, SCLC, NSCLC, NHL	AML, CRC, BRCA, HNSCC, UTC
42 (VLSPFILTL; listed as Homo sapiens) [compound 42]	NSCLC, RCC, BRCA, UBC, OC, NHL	AML, CLL, UTC
43 (LLWAGPVTA; listed as Homo sapiens) [compound 43]	CLL, HCC, CRC, NSCLC, RCC, UBC, NHL, TC	HNSCC
44 (GLLWQIIKV; listed as Homo sapiens) [compound 44]	CRC, NSCLC, GC	
45 (VLGPTPELV; listed as Homo sapiens) [compound 45]	CRC, SCLC, GC, clPC, PC	OSCAR, GBC_CCC, BRCA
46 (SLAKHGIVAL; listed as Homo sapiens) [compound 46]	PC, NSCLC, CRC, RCC, OC, clPC, PCA, NHL	UBC, HNSCC, GB, CLL, MEL, UTC, HCC
47 (GLYQAQVNL; listed as Homo sapiens) [compound 47]	NSCLC, SCLC	OSCAR
48 (TLDHKPVTV; listed as Homo sapiens) [compound 48]	OC, PCA, NSCLC	
49 (LLDESKLTL; listed as Homo sapiens) [compound 49]	UBC, OC, PCA, NSCLC, RCC	
51 (LLLDGDFTL; listed as Homo sapiens) [compound 51]	SCLC, HCC	OSCAR
52 (ELLSSIFFL; listed as Homo sapiens) [compound 52]	UBC, NSCLC, CRC, RCC	
55 (IASAIVNEL; listed as Homo sapiens) [compound 55]	BRCA, GC	HCC, GBC_CCC

Substance	Peptide Presentation on cancer entities [1]	Peptide Presentation on cancer entities [2]
56 (KILDLTRVL; listed as Homo sapiens) [compound 56]	CRC, NSCLC	GBC_CCC
57 (VLISSTVRL; listed as Homo sapiens) [compound 57]	clPC, RCC, CLL, NHL	MEL
58 (ALDDSLTSL; listed as Homo sapiens) [compound 58]	clPC, PC, GB	
59 (ALTKILAEL; listed as Homo sapiens) [compound 59]	UBC, NSCLC	HCC
60 (FLIDTSASM; listed as Homo sapiens) [compound 60]	UBC, SCLC, RCC	AML, CLL, BRCA, HNSCC, UTC, NHL
61 (HLPDFVKQL; listed as Homo sapiens) [compound 61]	BRCA, CLL, GBC_CCC	MEL, AML
62 (SLFNQEVQI; listed as Homo sapiens) [compound 62]	CLL, NHL	
63 (TLSSERDFAL; listed as Homo sapiens) [compound 63]	NSCLC, GC	
64 (GLSSSSYEL; listed as Homo sapiens) [compound 64]		GBC_CCC, HCC
65 (KLDGICWQV; listed as Homo sapiens) [compound 65]		GBC_CCC, HCC
66 (FITDFYTTV; listed as Homo sapiens) [compound 66]		MEL, UBC, HCC, HNSCC, CRC
67 (GVIETVTSL; listed as Homo sapiens) [compound 67]	NSCLC, GC, CRC	AML
68 (ALYGFFFKI; listed as Homo sapiens) [compound 68]	UBC	
69 (GIYDGILHSI; listed as Homo sapiens) [compound 69]	UEC, GB	
70 (GLFSQHFNL; listed as Homo sapiens) [compound 70]	HCC, NSCLC	BRCA, UTC, HNSCC, UBC, AML, OSCAR, clPC
71 (GLITVDIAL; listed as Homo sapiens) [compound 71]	SCLC, PCA	AML, MEL, UTC
72 (GMIGFQVLL; listed as Homo sapiens) [compound 72]	UBC, OC, CLL, GB, GBC_CCC	HNSCC, AML
74 (ILDETLENV; listed as Homo sapiens) [compound 74]	UBC, SCLC, NHL	AML, BRCA
75 (ILDNVKNLL; listed as Homo sapiens) [compound 75]		AML
76 (ILLDESNFNHFL; listed as Homo sapiens) [compound 76]	NSCLC	
